Results as given in US20200377869.

Amino acid sequences for entries named in this document (tags omitted).
UniProt P19821, whole entry: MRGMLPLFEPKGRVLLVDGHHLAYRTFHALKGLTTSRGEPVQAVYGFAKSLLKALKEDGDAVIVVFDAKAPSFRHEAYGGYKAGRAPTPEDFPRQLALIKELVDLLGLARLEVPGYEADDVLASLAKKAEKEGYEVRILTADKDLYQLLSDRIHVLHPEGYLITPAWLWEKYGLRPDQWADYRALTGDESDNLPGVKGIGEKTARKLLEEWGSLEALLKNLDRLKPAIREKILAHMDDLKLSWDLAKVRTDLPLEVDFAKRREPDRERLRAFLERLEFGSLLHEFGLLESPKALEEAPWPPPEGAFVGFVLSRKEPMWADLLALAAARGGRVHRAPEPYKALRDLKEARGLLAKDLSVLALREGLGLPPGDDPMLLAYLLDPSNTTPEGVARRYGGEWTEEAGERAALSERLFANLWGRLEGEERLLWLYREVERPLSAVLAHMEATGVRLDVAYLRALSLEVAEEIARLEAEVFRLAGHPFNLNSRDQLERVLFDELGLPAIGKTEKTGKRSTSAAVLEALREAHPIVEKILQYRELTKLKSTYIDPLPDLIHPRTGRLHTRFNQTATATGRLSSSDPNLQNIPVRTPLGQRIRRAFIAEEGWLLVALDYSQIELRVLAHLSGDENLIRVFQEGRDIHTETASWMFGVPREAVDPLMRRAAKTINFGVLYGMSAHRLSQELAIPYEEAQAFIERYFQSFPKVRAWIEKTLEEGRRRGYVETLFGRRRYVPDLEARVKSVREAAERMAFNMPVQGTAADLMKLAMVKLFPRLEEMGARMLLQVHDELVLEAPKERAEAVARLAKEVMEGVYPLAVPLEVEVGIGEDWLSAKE

What was measured:
Q5 DNA polymerase = test: inhibition of the protein; conditions: deoxyinosine at position 12 (n), loop TTCITAGCGTTT [12 deoxyinosine (parent base T)]; inactivated, reactivated by endonuclease V; 80 nM aptamer, 5 mM MgCl2, 60 or 65 C; purified recombinant protein; protein details: New England Biolabs M0491S; folded or branched DNA; letters built from the parent sequence and the stated change; variant of circular aptamer SEQ ID NO:6
Phusion DNA polymerase = test: inhibition of the protein; conditions: deoxyinosine at position 12 (n), loop TTCITAGCGTTT [12 deoxyinosine (parent base T)]; inactivated, reactivated by endonuclease V; 80 nM aptamer, 5 mM MgCl2, 60 or 65 C; purified recombinant protein; protein details: New England Biolabs M0530S; folded or branched DNA; letters built from the parent sequence and the stated change; variant of circular aptamer SEQ ID NO:6
Deep Vent DNA polymerase = target: T1, Deep Vent DNA polymerase (UniProt Q51334); test: inhibition of the protein; conditions: deoxyinosine at position 12 (n), loop TTCITAGCGTTT [12 deoxyinosine (parent base T)]; inactivated, reactivated by endonuclease V; 80 nM aptamer, 5 mM MgCl2, 60 or 65 C; purified recombinant protein; protein details: New England Biolabs M0258S; folded or branched DNA; letters built from the parent sequence and the stated change; variant of circular aptamer SEQ ID NO:6
T1 sequence (looked up, limits assumed): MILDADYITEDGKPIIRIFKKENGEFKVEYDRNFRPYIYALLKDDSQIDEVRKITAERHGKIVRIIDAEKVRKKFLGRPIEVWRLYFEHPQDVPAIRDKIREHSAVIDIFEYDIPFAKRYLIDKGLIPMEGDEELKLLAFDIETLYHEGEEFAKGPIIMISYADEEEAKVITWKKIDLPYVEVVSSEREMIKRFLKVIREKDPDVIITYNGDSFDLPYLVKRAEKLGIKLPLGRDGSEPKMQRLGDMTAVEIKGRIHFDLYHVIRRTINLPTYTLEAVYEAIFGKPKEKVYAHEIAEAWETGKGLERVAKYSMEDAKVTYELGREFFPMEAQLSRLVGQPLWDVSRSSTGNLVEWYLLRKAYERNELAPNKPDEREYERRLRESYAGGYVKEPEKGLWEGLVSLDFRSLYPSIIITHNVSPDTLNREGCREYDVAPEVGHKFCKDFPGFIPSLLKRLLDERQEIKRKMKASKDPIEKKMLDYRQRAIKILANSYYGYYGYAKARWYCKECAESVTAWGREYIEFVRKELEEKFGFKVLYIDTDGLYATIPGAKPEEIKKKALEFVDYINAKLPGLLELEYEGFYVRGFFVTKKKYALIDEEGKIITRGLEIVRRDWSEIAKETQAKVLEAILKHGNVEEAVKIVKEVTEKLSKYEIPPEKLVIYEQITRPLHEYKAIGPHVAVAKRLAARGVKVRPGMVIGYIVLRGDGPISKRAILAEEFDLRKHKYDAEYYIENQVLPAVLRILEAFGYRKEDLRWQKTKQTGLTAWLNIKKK

Vent DNA polymerase = target: T2, Vent DNA polymerase (UniProt P30317); test: inhibition of the protein; conditions: deoxyinosine at position 12 (n), loop TTCITAGCGTTT [12 deoxyinosine (parent base T)]; inactivated, reactivated by endonuclease V; 80 nM aptamer, 5 mM MgCl2, 60 or 65 C; purified recombinant protein; protein details: New England Biolabs M0254S; folded or branched DNA; letters built from the parent sequence and the stated change; variant of circular aptamer SEQ ID NO:6
T2 sequence (looked up, limits assumed): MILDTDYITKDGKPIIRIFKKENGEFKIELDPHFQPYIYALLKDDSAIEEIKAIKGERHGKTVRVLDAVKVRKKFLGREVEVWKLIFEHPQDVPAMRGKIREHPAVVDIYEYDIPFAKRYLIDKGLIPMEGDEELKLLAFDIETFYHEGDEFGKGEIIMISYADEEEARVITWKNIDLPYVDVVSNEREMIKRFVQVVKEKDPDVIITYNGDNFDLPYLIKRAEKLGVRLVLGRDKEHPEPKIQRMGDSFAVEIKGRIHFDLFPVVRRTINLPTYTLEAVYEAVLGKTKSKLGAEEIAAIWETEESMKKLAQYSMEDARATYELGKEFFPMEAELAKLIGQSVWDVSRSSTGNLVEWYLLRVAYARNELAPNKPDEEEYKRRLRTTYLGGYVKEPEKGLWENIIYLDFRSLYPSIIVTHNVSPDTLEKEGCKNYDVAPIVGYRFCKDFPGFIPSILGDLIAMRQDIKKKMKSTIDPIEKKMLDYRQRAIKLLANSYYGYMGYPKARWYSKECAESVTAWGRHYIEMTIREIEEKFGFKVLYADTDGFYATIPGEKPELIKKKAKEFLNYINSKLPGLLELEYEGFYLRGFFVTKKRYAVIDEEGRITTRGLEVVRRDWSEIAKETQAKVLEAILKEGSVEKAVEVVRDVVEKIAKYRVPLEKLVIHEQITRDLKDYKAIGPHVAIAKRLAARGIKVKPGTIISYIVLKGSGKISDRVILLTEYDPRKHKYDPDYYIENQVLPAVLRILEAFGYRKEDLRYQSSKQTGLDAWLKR

[1] = target: T3, Bst DNA polymerase large fragment (UniProt P52026); test: inhibition of the protein; conditions: deoxyinosine at position 12 (n), loop TTCITAGCGTTT [12 deoxyinosine (parent base T)]; not inactivated by aptamer; 80 nM, 5 mM MgCl2, 60 or 65 C; purified recombinant protein; protein details: New England Biolabs M0275S; folded or branched DNA; letters built from the parent sequence and the stated change; variant of circular aptamer SEQ ID NO:6
T3 sequence (looked up, limits assumed): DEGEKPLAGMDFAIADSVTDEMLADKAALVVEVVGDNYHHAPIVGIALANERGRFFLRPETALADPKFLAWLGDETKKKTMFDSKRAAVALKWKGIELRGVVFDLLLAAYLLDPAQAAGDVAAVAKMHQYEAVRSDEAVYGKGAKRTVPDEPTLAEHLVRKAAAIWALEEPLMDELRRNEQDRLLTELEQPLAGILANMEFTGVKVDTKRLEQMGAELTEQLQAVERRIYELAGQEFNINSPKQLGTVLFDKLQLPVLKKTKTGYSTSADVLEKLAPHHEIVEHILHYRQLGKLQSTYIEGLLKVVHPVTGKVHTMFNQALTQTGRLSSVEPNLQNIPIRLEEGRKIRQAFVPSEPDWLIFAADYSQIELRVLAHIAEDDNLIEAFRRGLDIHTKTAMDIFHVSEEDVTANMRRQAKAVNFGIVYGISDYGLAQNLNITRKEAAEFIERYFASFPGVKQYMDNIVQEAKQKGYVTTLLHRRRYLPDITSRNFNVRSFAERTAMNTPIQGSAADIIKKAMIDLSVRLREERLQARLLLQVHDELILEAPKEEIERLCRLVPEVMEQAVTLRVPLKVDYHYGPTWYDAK

Taq DNA polymerase = Taq DNA polymerase (UniProt P19821); test: inhibition of the protein; conditions: deoxyinosine at position 12 (n), loop TTCITAGCGTTT [12 deoxyinosine (parent base T)]; very effective deactivation; 80 nM aptamer, PCR and hairpin-extension assay, 5 mM MgCl2; purified recombinant protein; protein details: GenScript E00007; folded or branched DNA; letters built from the parent sequence and the stated change; variant of circular aptamer SEQ ID …
[2] = target: T4, Endonuclease V (Thermotoga maritima) (UniProt Q9X2H9); test: enzyme reaction in vitro; conditions: deoxyinosine at position 12 (n), loop TTCITAGCGTTT [12 deoxyinosine (parent base T)]; very effective reactivation of Taq (indirect readout); purified recombinant protein; protein details: Fisher Scientific FEREN0141; folded or branched DNA; letters built from the parent sequence and the stated change; variant of circular aptamer SEQ ID NO:6
T4 sequence (looked up, limits assumed): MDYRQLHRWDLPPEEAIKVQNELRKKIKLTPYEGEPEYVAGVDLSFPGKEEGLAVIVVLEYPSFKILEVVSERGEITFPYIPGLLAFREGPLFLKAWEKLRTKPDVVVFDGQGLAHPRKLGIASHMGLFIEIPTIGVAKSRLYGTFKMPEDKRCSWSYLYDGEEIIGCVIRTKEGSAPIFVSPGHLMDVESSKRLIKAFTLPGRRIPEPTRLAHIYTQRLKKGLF

## AAATTATATTCTTAGCGTTTTATAATTTTAAAACGAAGTTTTA [circular aptamer SEQ ID NO:12]
Q5 DNA polymerase
  functional effect of the aptamer: active
Phusion DNA polymerase
  functional effect of the aptamer: active
Deep Vent DNA polymerase
  functional effect of the aptamer: active
Vent DNA polymerase
  functional effect of the aptamer: active
[1]
  functional effect of the aptamer: not active
Taq DNA polymerase
  functional effect of the aptamer: active
[2]
  activity on this sequence: active

For at least one entry, the source does not settle the construct or the ends of the probe. For some of these results: A negative result means that nothing was seen under these conditions. For some of these results: Protein sequences can lack the tags named with them.
